From article PMC9976902, “Interaction of human HelQ with DNA polymerase delta halts DNA synthesis and stimulates DNA single-strand annealing” (Nucleic Acids Research, 2022) come the findings set out here.

These are yes or no findings as the source states them, for the method shown. Binding seen in cells or lysates may run through a third protein. Tags and fused reporters may be left off the sequences shown.

Assay [1] addresses T1, N-mVenus fused to POLD3 (human) (UniProt Q15054).
T1 sequence: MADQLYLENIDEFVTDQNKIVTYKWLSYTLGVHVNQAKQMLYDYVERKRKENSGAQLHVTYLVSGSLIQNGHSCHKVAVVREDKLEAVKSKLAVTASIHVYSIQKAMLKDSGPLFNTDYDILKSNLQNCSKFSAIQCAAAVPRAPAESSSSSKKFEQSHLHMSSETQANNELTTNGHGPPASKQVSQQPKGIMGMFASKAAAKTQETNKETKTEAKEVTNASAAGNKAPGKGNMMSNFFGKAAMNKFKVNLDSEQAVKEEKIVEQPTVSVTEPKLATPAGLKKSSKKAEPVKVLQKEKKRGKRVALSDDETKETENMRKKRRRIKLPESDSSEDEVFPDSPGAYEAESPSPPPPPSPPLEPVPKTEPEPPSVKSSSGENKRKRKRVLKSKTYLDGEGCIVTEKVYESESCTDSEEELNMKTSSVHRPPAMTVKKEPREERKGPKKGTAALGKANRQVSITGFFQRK
The assay is described as follows: split reporter; BiFC with split mVenus (1–154 / 155–238) in E. coli BL21AI co-expressing an NmVenus and a CmVenus protein; induced with L-arabinose (0.05% w/v) and IPTG (1 mM); cells in PBS in 96-well plates imaged at 515–527 nm, 5–180 min after induction.

Assay [2] concerns the target N-terminal fragment of the mVenus fluorescent protein (1–154aa). The description is as above.

Turning to “C-terminal fragment of mVenus (155–238aa) (domain or fragment)”, in assay [1], the binding entry is listed as “no binding”.

B1: C-mVenus fused to N-HelQ (HelQ amino acids 1–241) (domain or fragment, UniProt Q8TDG4 1-241)
chain: MDECGSRIRRRVSLPKRNRPSLGCIFGAPTAAELVPGDEGKEEEEMVAENRRRKTAGVLPVEVQPLLLSDSPECLVLGGGDTNPDLLRHMPTDRGVGDQPNDSEVDMFGDYDSFTENSFIAQVDDLEQKYMQLPEHKKHATDFATENLCSESIKNKLSITTIGNLTELQTDKHTENQSGYEGVTIEPGADLLYDVPSSQAIYFENLQNSSNDLGDHSMKERDWKSSSHNTVNEELPHNCIE
As to B1, the binding entry in assay [2] is on record as “no binding”.
